# Reference: the supplement of paper PMC12067093, “Discovery and optimisation of a covalent ligand for TRIM25 and its application to targeted protein ubiquitination” (Chemical Science, 2025)
# The chains behind the UniProt entries cited, without tags or fusion partners. Where a name states a change or a piece, a line headed by the entry shows the natural chain unless it says otherwise.
# UniProt P27986, whole entry, looked up: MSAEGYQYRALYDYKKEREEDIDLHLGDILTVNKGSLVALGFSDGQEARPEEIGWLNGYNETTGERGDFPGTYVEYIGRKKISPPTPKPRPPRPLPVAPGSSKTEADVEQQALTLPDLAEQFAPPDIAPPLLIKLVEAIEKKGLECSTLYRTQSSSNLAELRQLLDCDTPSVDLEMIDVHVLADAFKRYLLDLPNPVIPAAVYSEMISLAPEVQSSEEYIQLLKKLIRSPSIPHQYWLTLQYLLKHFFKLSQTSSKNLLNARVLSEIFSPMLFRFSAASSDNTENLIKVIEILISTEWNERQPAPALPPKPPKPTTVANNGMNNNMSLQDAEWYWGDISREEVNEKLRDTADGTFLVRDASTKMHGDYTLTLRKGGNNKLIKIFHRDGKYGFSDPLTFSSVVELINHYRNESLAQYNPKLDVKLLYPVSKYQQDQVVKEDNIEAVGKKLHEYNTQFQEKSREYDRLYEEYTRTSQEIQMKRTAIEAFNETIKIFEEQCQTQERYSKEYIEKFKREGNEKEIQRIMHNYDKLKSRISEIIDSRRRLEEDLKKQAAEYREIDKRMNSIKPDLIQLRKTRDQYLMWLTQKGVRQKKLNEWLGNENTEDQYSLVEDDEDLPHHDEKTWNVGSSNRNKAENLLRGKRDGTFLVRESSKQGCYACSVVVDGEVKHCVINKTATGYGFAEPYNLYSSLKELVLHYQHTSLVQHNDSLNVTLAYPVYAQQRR
# UniProt Q9Y263: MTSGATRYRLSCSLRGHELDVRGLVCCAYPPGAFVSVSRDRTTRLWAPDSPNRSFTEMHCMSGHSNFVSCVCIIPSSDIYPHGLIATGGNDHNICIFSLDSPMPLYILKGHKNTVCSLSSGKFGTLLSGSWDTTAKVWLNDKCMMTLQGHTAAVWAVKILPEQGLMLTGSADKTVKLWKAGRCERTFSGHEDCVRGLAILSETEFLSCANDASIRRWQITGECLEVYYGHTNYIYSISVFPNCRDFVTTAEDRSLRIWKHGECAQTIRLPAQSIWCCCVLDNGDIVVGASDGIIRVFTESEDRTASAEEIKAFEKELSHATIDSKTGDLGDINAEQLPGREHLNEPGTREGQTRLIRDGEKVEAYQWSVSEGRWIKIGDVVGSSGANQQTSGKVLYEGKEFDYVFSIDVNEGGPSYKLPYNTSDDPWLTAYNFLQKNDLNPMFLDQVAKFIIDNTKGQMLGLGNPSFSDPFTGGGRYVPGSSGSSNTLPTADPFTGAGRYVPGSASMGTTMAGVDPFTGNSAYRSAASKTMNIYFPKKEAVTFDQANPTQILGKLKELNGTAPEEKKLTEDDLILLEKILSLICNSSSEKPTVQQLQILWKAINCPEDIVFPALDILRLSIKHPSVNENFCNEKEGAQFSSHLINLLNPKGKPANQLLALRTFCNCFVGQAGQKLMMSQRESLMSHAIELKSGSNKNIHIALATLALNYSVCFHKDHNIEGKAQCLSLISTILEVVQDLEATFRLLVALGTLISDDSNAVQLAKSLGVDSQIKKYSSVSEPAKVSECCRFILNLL
# UniProt P19174: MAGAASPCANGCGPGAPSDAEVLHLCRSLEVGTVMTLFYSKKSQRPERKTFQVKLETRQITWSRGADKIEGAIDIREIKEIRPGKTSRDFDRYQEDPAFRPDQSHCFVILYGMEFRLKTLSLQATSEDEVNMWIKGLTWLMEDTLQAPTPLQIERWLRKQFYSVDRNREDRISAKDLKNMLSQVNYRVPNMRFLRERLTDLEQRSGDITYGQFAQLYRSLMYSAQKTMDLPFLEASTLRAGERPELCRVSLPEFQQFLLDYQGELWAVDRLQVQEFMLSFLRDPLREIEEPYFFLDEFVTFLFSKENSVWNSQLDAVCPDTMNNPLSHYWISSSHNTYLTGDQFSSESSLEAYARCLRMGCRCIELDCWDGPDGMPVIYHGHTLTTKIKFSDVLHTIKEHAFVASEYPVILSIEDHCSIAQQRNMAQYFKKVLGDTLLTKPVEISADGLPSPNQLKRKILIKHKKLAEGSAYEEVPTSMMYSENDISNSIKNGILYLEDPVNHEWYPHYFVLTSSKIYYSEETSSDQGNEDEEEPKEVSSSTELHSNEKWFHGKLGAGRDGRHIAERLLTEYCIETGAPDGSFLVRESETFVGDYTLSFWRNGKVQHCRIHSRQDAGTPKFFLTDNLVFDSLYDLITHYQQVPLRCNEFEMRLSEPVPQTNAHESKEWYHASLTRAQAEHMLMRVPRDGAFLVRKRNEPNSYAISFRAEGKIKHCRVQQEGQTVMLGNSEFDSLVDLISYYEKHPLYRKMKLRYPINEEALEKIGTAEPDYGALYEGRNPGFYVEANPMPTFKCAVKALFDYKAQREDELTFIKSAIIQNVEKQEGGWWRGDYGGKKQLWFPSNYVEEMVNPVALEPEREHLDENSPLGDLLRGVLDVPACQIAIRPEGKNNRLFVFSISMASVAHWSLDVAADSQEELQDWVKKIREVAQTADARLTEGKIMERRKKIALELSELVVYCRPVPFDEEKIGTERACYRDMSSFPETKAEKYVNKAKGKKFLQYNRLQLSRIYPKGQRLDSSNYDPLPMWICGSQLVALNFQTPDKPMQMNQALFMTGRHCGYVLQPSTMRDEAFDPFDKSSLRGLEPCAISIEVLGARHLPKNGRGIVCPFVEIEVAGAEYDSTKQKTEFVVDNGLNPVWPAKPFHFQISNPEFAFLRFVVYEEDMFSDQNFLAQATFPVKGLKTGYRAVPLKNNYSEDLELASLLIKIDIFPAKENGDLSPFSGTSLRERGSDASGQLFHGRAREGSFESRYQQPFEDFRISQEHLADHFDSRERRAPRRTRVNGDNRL
# UniProt Q10713: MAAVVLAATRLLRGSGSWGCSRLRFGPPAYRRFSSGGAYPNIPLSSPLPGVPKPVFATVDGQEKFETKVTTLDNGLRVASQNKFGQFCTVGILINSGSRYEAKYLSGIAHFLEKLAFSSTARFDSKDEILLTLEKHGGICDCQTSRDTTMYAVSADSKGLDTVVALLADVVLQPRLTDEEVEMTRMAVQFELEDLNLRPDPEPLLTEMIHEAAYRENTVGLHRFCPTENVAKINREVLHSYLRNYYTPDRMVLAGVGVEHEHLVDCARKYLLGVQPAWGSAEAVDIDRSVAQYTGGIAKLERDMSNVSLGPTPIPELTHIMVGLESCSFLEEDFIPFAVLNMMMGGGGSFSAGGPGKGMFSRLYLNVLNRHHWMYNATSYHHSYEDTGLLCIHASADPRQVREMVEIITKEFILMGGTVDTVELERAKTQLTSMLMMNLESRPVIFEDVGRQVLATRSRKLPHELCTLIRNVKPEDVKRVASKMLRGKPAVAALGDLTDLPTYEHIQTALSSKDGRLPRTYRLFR
# UniProt Q99570, whole entry, looked up: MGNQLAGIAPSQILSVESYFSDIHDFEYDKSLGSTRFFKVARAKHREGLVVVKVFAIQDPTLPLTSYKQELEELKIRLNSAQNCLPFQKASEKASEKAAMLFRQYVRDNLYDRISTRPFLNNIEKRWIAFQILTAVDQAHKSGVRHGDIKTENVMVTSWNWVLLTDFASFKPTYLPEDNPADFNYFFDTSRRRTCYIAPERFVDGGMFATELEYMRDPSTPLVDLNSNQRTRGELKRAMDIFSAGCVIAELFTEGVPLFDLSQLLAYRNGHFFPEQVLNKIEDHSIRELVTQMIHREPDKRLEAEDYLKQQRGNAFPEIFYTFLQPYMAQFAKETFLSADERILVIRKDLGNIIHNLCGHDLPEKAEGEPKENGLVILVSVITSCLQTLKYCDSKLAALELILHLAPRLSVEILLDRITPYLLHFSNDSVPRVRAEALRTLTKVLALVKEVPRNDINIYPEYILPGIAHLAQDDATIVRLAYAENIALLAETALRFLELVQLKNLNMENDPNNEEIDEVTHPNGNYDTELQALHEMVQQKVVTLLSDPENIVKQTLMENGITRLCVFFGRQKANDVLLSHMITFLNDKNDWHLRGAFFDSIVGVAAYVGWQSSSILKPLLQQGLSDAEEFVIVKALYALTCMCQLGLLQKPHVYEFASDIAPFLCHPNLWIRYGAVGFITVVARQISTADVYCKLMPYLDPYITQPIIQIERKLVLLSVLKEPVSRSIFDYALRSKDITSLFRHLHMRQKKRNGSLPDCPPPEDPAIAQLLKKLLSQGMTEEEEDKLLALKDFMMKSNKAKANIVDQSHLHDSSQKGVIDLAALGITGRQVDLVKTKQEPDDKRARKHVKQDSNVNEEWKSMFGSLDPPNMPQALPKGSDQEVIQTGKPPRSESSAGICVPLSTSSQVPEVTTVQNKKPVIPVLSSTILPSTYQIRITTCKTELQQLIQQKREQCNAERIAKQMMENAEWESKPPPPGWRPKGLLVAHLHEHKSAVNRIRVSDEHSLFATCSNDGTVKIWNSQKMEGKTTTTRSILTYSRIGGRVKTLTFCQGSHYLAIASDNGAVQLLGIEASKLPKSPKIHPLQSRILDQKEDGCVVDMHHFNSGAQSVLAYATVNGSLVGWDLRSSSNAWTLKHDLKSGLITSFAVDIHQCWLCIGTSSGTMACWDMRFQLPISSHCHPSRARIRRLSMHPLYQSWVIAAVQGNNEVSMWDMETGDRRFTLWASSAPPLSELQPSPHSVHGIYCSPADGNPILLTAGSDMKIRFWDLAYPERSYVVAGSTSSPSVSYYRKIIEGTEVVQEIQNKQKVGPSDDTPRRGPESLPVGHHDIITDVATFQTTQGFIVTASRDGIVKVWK
# UniProt O75439: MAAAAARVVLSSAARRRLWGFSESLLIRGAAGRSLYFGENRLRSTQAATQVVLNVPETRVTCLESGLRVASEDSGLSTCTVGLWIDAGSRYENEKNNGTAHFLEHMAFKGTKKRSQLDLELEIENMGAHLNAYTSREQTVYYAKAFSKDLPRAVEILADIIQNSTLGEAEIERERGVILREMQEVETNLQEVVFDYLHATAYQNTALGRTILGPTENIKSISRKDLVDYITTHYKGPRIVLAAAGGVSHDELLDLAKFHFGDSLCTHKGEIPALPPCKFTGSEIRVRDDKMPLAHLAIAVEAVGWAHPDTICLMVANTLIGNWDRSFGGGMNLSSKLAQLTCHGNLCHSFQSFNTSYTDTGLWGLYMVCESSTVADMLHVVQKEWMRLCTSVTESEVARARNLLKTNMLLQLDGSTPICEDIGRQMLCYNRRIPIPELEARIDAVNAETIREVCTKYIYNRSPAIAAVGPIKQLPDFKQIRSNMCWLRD
# UniProt P53350, whole entry, looked up: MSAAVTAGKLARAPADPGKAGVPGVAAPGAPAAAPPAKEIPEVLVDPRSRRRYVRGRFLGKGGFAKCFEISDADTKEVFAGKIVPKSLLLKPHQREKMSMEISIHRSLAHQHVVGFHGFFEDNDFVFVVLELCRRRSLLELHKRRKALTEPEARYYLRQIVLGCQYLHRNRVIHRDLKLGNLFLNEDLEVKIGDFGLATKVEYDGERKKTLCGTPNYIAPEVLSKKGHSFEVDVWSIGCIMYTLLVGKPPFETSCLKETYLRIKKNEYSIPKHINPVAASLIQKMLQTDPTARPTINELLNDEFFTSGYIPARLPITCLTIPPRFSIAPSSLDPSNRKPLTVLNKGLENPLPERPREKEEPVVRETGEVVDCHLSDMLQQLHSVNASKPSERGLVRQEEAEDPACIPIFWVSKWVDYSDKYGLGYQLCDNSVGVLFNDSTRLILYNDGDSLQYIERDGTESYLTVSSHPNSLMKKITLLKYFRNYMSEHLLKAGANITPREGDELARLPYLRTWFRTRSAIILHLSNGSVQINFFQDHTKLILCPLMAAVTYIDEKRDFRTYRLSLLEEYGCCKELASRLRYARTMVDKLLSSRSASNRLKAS
# UniProt Q9H8W4: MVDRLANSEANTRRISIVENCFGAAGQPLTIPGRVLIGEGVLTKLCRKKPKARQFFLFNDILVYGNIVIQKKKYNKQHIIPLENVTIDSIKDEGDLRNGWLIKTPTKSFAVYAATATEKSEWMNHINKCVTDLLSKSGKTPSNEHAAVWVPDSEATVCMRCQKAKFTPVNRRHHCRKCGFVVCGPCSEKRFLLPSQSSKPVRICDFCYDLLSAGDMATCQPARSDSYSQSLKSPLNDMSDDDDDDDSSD
# The list shows a part of the results.
# Compound: CC1Cc2ccccc2N1C(=O)C1CCCN(C1)C(=O)CCl (mixture of isomers) [TRIM25 ligand 11 (diastereomer mixture)]
# Experiment: probe-labelled cysteine peptide fold change vs DMSO (competition) (log2 fold change); higher = less target engagement (more negative = stronger competition)
# Details: 10 µM; THP-1; incubation time: 4 h
# 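Also: competitive chemoproteomic profiling in live THP-1 cells with an iodoacetamide desthiobiotin (IA-DTB) probe, comparing probe-labelled peptide intensities in compound-treated cells against DMSO-treated controls.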
row,Target,probe-labelled cysteine peptide fold change
1,PIK3R1_P27986_146_GLECSTLYR (UniProt P27986),0.17
2,PNKP_Q96T60_409_CVTTCETALK (UniProt Q96T60),0.0122
3,PLAA_Q9Y263_143_CMMTLQGHTAAVWAVK (UniProt Q9Y263),0.0286
4,PNKP_Q96T60_437_YVQCAR (UniProt Q96T60),0.11
5,PLAA_Q9Y263_26_GLVCCAYPPGAFVSVSR (UniProt Q9Y263),0.00974

# Same assay, conditions: 50 µM; THP-1; incubation time: 4 h
row,Target,probe-labelled cysteine peptide fold change
1,PITPNM1_O00562_259_CNTGSEGSEAQPPGKPSTEAR (UniProt O00562),-0.104
2,PIK3R1_P27986_498_IFEEQCQTQER (UniProt P27986),-0.0568
3,PLCB2_Q00722_1108_QAACLEQIR (UniProt Q00722),0.23
4,PJA2_O43164_48_HAYVSFKPCMTR (UniProt O43164),-0.114
5,PLCG1_P19174_646_CNEFEMR (UniProt P19174),-0.175
6,PLOD1_Q02809_369_NMGADLCR (UniProt Q02809),0.0742
7,PMPCA_Q10713_466_LPHELCTLIR (UniProt Q10713),-0.13
8,PMS1_P54277_457_TCFISSVK (UniProt P54277),-0.0876
9,PIK3R4_Q99570_899_SESSAGICVPLSTSSQVPEVTTVQNK (UniProt Q99570),-0.238
10,PMPCB_O75439_419_TNMLLQLDGSTPICEDIGR (UniProt O75439),0.0376
11,PLK1_P53350_405_QEEAEDPACIPIFWVSK (UniProt P53350),-0.251
12,PIK3CD_O00329_132_GLHEFDSLCDPEVNDFR (UniProt O00329),-0.0623
13,PIN1_Q13526_57_CSHLLVK (UniProt Q13526),-0.111
14,PKN2_Q16513_394_TDDLSNDVCAVLK (UniProt Q16513),-0.0681
15,PLXNB2_O15031_1149_TLTETDLYCEPPEVQPPPK (UniProt O15031),0.0509
16,PLEK_P08567_59_GSTLTSPCQDFGK (UniProt P08567),0.0238
17,PLAA_Q9Y263_631_HPSVNENFCNEK (UniProt Q9Y263),-0.0586
18,PLCG1_P19174_1088_GLEPCAISIEVLGAR (UniProt P19174),-0.198
19,PIK3R4_Q99570_1180_FQLPISSHCHPSR (UniProt Q99570),0.0337

row,Target,probe-labelled cysteine peptide fold change
1,PLK1_P53350_372_ETGEVVDCHLSDMLQQLHSVNASKPSER (UniProt P53350),-0.22
2,PIK3C2A_O00443_541_HLYQIEKPCK (UniProt O00443),-0.353
3,PITPNB_P48739_13_VVLPCSVQEYQVGQLYSVAEASK (UniProt P48739),0.151
4,PMPCB_O75439_265_FHFGDSLCTHK (UniProt O75439),-0.273
5,PKM_P14618-2_423_CLAAALIVLTESGR (UniProt P14618),0.159
6,PNKP_Q96T60_445_AAGVPCR (UniProt Q96T60),0.218
7,PIKFYVE_Q9Y2I7_421_WLDCVSHHDQLFR (UniProt Q9Y2I7),0.0474
8,PML_P29590_338_CYASDQEVLDMHGFLR (UniProt P29590),-0.0375
9,PLEKHG2_Q9H7P9_405_RLWIHCLQR (UniProt Q9H7P9),-0.0245
10,PKN1_Q16512_442_GLCALK (UniProt Q16512),0.113
11,PLPPR3_Q6T4P5_54_VGFQCYDR (UniProt Q6T4P5),0.0103
12,PLEKHF2_Q9H8W4_158_TPSNEHAAVWVPDSEATVCMR (UniProt Q9H8W4),-0.105
13,PLXNB2_O15031_555_RAQGEVQLTVSPLPALSEEDELLCLFGESPPHPAR (UniProt O15031),0.319
14,PLCG1_P19174_106_YQEDPAFRPDQSHCFVILYGMEFR (UniProt P19174),0.21
15,PIK3R1_P27986_146_GLECSTLYR (UniProt P27986),0.189
16,PNKP_Q96T60_409_CVTTCETALK (UniProt Q96T60),0.0257
17,PLAA_Q9Y263_143_CMMTLQGHTAAVWAVK (UniProt Q9Y263),0.0632
18,PNKP_Q96T60_437_YVQCAR (UniProt Q96T60),0.0866
19,PLAA_Q9Y263_26_GLVCCAYPPGAFVSVSR (UniProt Q9Y263),-0.0656
